From article PMC13431160

The chains behind the UniProt entries cited, without tags or fusion partners.
UniProt O00425: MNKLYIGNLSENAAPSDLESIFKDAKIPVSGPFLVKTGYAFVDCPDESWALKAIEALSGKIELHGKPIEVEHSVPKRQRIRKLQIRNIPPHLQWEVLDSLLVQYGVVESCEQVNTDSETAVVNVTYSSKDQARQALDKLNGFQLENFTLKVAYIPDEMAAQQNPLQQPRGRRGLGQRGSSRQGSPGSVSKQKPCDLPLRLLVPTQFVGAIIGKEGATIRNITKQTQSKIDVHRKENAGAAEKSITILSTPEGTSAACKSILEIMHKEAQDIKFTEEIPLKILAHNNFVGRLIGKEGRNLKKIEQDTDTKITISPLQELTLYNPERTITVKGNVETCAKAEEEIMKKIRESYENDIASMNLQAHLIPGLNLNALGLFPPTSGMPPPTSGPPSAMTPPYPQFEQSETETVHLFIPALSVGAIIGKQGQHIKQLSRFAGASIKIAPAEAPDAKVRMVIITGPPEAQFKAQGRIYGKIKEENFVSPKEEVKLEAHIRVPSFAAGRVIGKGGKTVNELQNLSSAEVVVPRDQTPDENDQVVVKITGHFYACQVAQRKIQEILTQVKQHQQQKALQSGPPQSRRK
UniProt Q9UKV8: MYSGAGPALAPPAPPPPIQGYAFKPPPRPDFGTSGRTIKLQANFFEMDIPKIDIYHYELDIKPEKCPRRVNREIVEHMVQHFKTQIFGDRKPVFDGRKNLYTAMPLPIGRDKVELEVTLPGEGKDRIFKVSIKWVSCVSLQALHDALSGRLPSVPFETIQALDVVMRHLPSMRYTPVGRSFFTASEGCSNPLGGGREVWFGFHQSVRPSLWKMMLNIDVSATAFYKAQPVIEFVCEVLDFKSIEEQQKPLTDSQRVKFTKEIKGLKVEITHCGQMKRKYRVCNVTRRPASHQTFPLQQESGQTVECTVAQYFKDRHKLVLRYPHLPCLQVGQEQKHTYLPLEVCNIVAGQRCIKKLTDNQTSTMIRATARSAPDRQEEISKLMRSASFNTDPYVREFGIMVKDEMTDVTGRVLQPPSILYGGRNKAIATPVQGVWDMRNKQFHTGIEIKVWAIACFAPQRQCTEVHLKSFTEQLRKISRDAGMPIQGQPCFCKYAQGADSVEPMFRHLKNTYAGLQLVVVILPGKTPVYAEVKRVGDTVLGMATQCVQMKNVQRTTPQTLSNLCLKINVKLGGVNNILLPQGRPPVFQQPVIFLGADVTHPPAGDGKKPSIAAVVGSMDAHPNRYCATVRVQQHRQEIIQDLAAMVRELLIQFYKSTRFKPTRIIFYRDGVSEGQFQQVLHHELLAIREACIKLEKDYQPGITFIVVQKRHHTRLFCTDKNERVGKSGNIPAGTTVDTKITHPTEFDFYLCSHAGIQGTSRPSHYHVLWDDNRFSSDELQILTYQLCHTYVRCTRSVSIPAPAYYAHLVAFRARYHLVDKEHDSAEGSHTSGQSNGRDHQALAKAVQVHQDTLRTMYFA
UniProt Q8IZH2: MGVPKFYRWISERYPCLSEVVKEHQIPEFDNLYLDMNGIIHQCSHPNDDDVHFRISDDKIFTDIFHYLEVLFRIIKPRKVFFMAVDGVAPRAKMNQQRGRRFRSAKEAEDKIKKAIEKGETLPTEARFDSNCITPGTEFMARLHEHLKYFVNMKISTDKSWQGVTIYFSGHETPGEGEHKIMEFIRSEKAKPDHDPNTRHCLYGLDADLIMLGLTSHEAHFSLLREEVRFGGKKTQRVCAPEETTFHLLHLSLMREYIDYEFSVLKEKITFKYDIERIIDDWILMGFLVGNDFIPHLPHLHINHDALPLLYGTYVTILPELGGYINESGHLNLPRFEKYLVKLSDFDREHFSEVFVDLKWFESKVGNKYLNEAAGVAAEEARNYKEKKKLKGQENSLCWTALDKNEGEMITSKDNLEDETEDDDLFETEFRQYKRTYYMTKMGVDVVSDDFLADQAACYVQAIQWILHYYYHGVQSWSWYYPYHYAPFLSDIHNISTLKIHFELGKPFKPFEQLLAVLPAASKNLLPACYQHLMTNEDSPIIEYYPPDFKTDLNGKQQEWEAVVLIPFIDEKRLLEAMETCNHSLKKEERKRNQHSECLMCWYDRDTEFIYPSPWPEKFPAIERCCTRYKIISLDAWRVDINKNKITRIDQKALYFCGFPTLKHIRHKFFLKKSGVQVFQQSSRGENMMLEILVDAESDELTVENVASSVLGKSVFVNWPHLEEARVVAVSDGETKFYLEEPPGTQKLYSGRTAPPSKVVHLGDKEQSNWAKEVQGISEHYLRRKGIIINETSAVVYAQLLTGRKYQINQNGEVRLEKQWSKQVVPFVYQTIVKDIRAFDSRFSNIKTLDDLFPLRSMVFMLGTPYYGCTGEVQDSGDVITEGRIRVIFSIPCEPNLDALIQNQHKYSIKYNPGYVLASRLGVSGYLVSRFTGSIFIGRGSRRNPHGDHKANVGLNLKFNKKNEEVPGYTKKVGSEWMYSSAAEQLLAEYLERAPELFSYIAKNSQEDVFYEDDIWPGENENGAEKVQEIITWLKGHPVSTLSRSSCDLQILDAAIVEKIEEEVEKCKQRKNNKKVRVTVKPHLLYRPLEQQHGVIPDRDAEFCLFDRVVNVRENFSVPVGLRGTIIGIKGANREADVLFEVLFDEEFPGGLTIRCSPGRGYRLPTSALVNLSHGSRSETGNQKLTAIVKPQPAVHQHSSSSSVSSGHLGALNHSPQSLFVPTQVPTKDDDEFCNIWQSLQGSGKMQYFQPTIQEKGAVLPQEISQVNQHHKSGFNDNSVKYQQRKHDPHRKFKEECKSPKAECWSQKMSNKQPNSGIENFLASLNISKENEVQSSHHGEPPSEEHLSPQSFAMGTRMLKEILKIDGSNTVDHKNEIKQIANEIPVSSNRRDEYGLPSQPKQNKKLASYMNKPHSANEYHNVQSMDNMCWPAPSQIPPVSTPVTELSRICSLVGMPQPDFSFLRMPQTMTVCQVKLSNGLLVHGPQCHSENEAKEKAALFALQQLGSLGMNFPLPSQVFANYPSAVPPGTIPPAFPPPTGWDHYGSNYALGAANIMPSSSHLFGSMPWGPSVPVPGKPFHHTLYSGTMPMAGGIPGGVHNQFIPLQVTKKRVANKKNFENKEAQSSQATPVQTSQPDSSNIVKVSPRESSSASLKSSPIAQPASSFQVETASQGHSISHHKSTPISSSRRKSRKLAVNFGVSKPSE
UniProt Q15717: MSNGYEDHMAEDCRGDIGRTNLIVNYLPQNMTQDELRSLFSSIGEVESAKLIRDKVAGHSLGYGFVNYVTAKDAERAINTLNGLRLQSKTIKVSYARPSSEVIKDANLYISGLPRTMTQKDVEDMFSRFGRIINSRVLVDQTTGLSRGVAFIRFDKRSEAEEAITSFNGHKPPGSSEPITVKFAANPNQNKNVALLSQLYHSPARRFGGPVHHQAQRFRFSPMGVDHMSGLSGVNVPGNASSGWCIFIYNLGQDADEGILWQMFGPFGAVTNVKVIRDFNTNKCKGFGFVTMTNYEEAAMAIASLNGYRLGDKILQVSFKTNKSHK
UniProt Q96F86: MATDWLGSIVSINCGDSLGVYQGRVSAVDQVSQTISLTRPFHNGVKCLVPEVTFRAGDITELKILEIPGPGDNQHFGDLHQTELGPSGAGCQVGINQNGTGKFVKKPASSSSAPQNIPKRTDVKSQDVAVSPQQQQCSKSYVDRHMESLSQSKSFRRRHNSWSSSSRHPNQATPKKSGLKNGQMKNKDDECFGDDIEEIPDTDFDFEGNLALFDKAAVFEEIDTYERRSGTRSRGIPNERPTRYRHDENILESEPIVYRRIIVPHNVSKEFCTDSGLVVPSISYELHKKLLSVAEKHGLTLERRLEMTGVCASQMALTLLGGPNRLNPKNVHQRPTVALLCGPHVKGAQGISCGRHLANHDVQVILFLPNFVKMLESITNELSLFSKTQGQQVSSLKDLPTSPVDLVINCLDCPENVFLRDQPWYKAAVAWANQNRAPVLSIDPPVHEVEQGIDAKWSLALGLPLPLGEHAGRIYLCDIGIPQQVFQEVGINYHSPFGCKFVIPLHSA
UniProt P11940: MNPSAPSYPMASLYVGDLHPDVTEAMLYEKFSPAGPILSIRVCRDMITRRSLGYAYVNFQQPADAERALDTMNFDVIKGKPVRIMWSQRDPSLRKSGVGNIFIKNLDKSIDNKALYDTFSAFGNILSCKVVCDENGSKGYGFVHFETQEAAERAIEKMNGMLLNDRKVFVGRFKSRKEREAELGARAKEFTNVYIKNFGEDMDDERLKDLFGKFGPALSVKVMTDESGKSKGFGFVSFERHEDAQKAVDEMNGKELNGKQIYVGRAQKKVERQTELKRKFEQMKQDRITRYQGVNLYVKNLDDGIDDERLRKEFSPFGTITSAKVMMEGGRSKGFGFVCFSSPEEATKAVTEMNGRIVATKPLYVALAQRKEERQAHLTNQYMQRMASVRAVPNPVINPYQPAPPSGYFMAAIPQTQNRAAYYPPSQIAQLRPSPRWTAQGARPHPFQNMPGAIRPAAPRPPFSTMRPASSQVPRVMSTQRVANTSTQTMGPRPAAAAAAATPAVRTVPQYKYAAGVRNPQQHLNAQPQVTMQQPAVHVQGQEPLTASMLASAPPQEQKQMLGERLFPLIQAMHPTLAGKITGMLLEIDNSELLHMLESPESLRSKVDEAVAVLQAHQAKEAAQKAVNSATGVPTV
UniProt P51114: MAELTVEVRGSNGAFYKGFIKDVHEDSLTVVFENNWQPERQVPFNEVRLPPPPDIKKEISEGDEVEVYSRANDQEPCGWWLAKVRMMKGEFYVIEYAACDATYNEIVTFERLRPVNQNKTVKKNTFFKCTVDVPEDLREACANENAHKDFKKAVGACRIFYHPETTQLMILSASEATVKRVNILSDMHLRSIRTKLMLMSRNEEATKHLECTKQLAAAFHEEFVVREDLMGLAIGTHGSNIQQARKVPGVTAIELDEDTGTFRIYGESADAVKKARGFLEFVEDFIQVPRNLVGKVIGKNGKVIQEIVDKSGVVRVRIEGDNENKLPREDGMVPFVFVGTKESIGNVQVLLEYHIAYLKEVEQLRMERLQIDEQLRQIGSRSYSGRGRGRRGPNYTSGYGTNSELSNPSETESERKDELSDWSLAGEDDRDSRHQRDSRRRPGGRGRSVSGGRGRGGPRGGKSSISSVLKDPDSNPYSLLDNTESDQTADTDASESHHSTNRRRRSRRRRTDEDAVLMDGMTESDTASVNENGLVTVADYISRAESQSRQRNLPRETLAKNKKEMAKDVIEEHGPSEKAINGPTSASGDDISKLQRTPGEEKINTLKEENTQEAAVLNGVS
UniProt P61326: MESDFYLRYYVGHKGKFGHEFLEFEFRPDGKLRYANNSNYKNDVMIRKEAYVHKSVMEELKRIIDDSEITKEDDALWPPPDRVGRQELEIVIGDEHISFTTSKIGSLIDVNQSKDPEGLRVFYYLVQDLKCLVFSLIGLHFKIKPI
UniProt P51116: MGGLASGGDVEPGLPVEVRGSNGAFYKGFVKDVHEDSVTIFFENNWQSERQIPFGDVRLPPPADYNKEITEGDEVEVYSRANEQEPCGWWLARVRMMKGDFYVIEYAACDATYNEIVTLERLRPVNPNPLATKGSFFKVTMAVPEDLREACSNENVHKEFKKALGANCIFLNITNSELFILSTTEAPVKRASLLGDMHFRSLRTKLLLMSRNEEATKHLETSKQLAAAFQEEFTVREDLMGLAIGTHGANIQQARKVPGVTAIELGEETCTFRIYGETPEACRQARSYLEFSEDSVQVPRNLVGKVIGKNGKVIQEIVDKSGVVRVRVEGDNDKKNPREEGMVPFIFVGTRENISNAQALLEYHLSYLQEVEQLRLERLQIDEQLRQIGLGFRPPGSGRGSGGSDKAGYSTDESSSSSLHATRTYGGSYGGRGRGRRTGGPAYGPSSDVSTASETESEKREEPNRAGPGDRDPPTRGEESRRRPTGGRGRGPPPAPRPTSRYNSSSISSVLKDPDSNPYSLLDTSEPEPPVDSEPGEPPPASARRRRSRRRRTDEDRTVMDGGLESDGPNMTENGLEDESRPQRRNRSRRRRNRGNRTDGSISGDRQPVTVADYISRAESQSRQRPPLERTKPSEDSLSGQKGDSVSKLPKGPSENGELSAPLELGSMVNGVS
UniProt P67809: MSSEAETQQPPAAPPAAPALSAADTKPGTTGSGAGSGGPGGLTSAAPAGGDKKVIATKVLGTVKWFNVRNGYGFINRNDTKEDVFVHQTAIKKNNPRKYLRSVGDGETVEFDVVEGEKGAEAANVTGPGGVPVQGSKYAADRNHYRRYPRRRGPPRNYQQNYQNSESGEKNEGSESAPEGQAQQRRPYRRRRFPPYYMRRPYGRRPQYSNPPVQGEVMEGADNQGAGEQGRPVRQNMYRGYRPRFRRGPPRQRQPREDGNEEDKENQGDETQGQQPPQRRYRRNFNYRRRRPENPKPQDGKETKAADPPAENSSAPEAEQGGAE

Assays:
[1] = biological target: IGF2BP3 (insulin-like growth factor 2 mRNA-binding protein 3), endogenous in HCT116 cells (human (endogenous in HCT116)) (UniProt O00425); test: affinity purification with mass spectrometry; endogenous IGF2BP3 immunoprecipitated from HCT116 WT lysate (Proteintech 14642-1-AP on protein G Dynabeads; IgG control); 25 mM HEPES pH 7.3, 150 mM NaCl, 0.5% NP-40; cells treated with DMSO or TM 5 µg/mL 4 h; with or without RNase I and RNase T1 in the second wash; label-free quantification
[2] = biological target: IGF2BP3 (insulin-like growth factor 2 mRNA-binding protein 3), endogenous in HCT116 cells (human (endogenous in HCT116)) (UniProt O00425); test: as above; remark: listed apart in the source

With “AGO2, endogenous in HCT116 cells (from UniProt Q9UKV8 1-859)” the binding [1] was “binds”.

“DCP2, endogenous in HCT116 cells (from UniProt Q8IU60 1-420)” was tested, and the binding [1] was “binds”.

In the case of “XRN1, endogenous in HCT116 cells (from UniProt Q8IZH2 1-1706)”, the binding [1] is reported as “binds”.

“G3BP1, endogenous in HCT116 cells (from UniProt Q13283 1-466)” was tested, and the binding [1] was “binds”.

For “HuR (ELAVL1), endogenous in HCT116 cells (from UniProt Q15717 1-326)”, the binding [1] was “binds”.

With “EDC3, endogenous in HCT116 cells (from UniProt Q96F86 1-508)” the binding [1] was “binds”.

With “PABPC1, endogenous in HCT116 cells (from UniProt P11940 1-636)” the binding [1] was “binds”.

For “FXR1, endogenous in HCT116 cells (from UniProt P51114 1-621)”, the binding [1] was “binds”.

With “MAGOH, endogenous in HCT116 cells (from UniProt P61326 1-146)” the binding [1] was “binds”.

“FXR2, endogenous in HCT116 cells (from UniProt P51116 1-673)” was tested, and the binding [1] was “binds”.

“YBX1, endogenous in HCT116 cells (from UniProt P67809 1-324)” was tested, and the binding [1] was “binds”.

B1: G3BP2, endogenous in HCT116 cells (protein, UniProt Q9UN86 1-482)
chain: MVMEKPSPLLVGREFVRQYYTLLNKAPEYLHRFYGRNSSYVHGGVDASGKPQEAVYGQNDIHHKVLSLNFSECHTKIRHVDAHATLSDGVVVQVMGLLSNSGQPERKFMQTFVLAPEGSVPNKFYVHNDMFRYEDEVFGDSEPELDEESEDEVEEEQEERQPSPEPVQENANSGYYEAHPVTNGIEEPLEESSHEPEPEPESETKTEELKPQVEEKNLEELEEKSTTPPPAEPVSLPQEPPKAFSWASVTSKNLPPSGTVSSSGIPPHVKAPVSQPRVEAKPEVQSQPPRVREQRPRERPGFPPRGPRPGRGDMEQNDSDNRRIIRYPDSHQLFVGNLPHDIDENELKEFFMSFGNVVELRINTKGVGGKLPNFGFVVFDDSEPVQRILIAKPIMFRGEVRLNVEEKKTRAARERETRGGGDDRRDIRRNDRGPGGPRGIVGGGMMRDRDGRGPPPRGGMAQKLGSGRGTGQMEGRFTGQRR
In the case of B1, the binding [2] is reported as “binds”.

B2: EDC4, endogenous in HCT116 cells (protein, UniProt Q6P2E9 1-1401)
chain: MASCASIDIEDATQHLRDILKLDRPAGGPSAESPRPSSAYNGDLNGLLVPDPLCSGDSTSANKTGLRTMPPINLQEKQVICLSGDDSSTCIGILAKEVEIVASSDSSISSKARGSNKVKIQPVAKYDWEQKYYYGNLIAVSNSFLAYAIRAANNGSAMVRVISVSTSERTLLKGFTGSVADLAFAHLNSPQLACLDEAGNLFVWRLALVNGKIQEEILVHIRQPEGTPLNHFRRIIWCPFIPEESEDCCEESSPTVALLHEDRAEVWDLDMLRSSHSTWPVDVSQIKQGFIVVKGHSTCLSEGALSPDGTVLATASHDGYVKFWQIYIEGQDEPRCLHEWKPHDGRPLSCLLFCDNHKKQDPDVPFWRFLITGADQNRELKMWCTVSWTCLQTIRFSPDIFSSVSVPPSLKVCLDLSAEYLILSDVQRKVLYVMELLQNQEEGHACFSSISEFLLTHPVLSFGIQVVSRCRLRHTEVLPAEEENDSLGADGTHGAGAMESAAGVLIKLFCVHTKALQDVQIRFQPQLNPDVVAPLPTHTAHEDFTFGESRPELGSEGLGSAAHGSQPDLRRIVELPAPADFLSLSSETKPKLMTPDAFMTPSASLQQITASPSSSSSGSSSSSSSSSSSLTAVSAMSSTSAVDPSLTRPPEELTLSPKLQLDGSLTMSSSGSLQASPRGLLPGLLPAPADKLTPKGPGQVPTATSALSLELQEVEPLGLPQASPSRTRSPDVISSASTALSQDIPEIASEALSRGFGSSAPEGLEPDSMASAASALHLLSPRPRPGPELGPQLGLDGGPGDGDRHNTPSLLEAALTQEASTPDSQVWPTAPDITRETCSTLAESPRNGLQEKHKSLAFHRPPYHLLQQRDSQDASAEQSDHDDEVASLASASGGFGTKVPAPRLPAKDWKTKGSPRTSPKLKRKSKKDDGDAAMGSRLTEHQVAEPPEDWPALIWQQQRELAELRHSQEELLQRLCTQLEGLQSTVTGHVERALETRHEQEQRRLERALAEGQQRGGQLQEQLTQQLSQALSSAVAGRLERSIRDEIKKTVPPCVSRSLEPMAGQLSNSVATKLTAVEGSMKENISKLLKSKNLTDAIARAAADTLQGPMQAAYREAFQSVVLPAFEKSCQAMFQQINDSFRLGTQEYLQQLESHMKSRKAREQEAREPVLAQLRGLVSTLQSATEQMAATVAGSVRAEVQHQLHVAVGSLQESILAQVQRIVKGEVSVALKEQQAAVTSSIMQAMRSAAGTPVPSAHLDCQAQQAHILQLLQQGHLNQAFQQALTAADLNLVLYVCETVDPAQVFGQPPCPLSQPVLLSLIQQLASDLGTRTDLKLSYLEEAVMHLDHSDPITRDHMGSVMAQVRQKLFQFLQAEPHNSLGKAARRLSLMLHGLVTPSLP
In the case of B2, the binding [2] is reported as “binds”.

Where two headings read alike, the source gives them in different places. Results are given in words; binding and its absence hold for the method and conditions named. Binding seen in cells or lysates may run through a third protein. A yes stands for co-enrichment or nearness to the bait. Other partners may have been found.
